Screen size: about 140,000 compounds; about 4,300 (3.1%) were called active. Inconclusive results, whose numbers are uncertain, are shown with a selection of clear calls.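 Rule for the calls: active = readout at or below -70, meaning at least 70% loss of cells showing the perinucleolar compartment, a nuclear body marking cancer cells; inconclusive = readout between -30 and a set limit; inactive = the rest.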
Assay: High Content Assay for Compounds that inhibit the Assembly of the Perinucleolar Compartment;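 note: plate controls were DMSO wells for no effect and camptothecin positive control wells for full effect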
Conditions: PC3M PTB-GFP, PNC prevalence imaging, 16 h; at 10 µM; active compounds read low
Outline: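 Compounds are pinned in duplicate onto adhered PC3M cells stably expressing GFP-tagged PTB and incubated 16 h at 37 C. Cells are then fixed, nuclei stained with Hoechst, and PNC-positive cells counted.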

Row | Structure (SMILES) | activity change (PNC), negative = inhibition
1 | CCOc1ccc2nc(N3CCC(C(=O)N4CCC5(CC4)OCCO5)CC3)sc2c1 | active: -103%
2 | Cc1ccnc(-n2c(-c3ccco3)nc3ccccc3c2=O)c1 | inconclusive: -32.1%
3 | CCOC(=O)c1c(C)n(COCCO)c2ccc(O)cc12 | inconclusive: -34.1%
4 | Cc1nn(Cc2ccc(Cl)cc2Cl)c(Cl)c1C(=O)Nc1ccc(OC(F)F)cc1 | inconclusive: -52.3%
5 | COc1cccc(N2CCN(Cc3cccc(Cl)c3)CC2)c1 | inactive: 15.3%
6 | Cc1cc(OC(=O)CCNC(=O)OC(C)(C)C)c2c3c(c(=O)oc2c1)CCC3 | active: -109%
7 | O=C(CCCN1CCC2(CC1)C(=O)NCN2c1ccccc1)c1ccc(F)cc1 | inconclusive: -35.1%
8 | O=C1/C(=C/c2ccc([N+](=O)[O-])cc2)N2CCC1CC2 | inconclusive: -34.2%
9 | COc1cc(/C=N/NP(=S)(c2ccccc2)c2ccccc2)ccc1O | inactive: 35.9%
10 | O=C1CC(=O)N(c2ccc3c(c2)OCO3)C(=O)N1 | active: -95%
11 | Cc1ccn2nc(S(=O)(=O)Nc3c(F)cccc3F)nc2n1 | inconclusive: -58.2%
12 | O=C(COc1ccc(S(=O)(=O)N2CCCCC2)cc1)N1CCN(Cc2ccccc2)CC1 | inconclusive: -54.4%
13 | COc1cccc(-n2nc(C(=O)N3CCC4(CC3)OCCO4)c3ccccc3c2=O)c1 | inconclusive: -54.4%
14 | CC(=O)[C@@]1(O)CC[C@H]2[C@@H]3CC=C4C[C@@H](O)CC[C@]4(C)[C@H]3CC[C@@]21C | inconclusive: -59.1%
15 | O=C1NC(=O)N(C2CCCCC2)C(=O)C1C1c2ccccc2C(=O)N1Cc1ccccc1 (configuration not stated) | inconclusive: -38.7%
16 | CCC(=NCCN1CCCCC1)c1c(O)n(C)c(=O)n(C)c1=O | inactive: 8.2%
17 | CC(=NCCCN1CCOCC1)c1c(O)n(Cc2ccccc2)c(=O)[nH]c1=O | inconclusive: -32.7%
18 | O=c1[nH]c(=O)n(-c2ccccc2)c(O)c1/C=C1/C(c2ccccc2)=Nc2ccccc21 | active: -90.9%
19 | O=C(c1ccc2c(c1)ncn2C1CCCCCC1)N1CCC2(CC1)OCCO2 | inactive: 29.8%
20 | CC(=O)c1ccc2c(c1)C1C(Cl)C(Sc3ccccc3[N+](=O)[O-])CC1C(c1ccccc1)N2 (configuration not stated) | active: -96.5%
21 | O=C(CNC(=O)c1ccccc1Cl)Nc1ccc(Br)cc1C(=O)c1ccccc1 | inactive: 32.2%
22 | Cc1ccc(-n2c(O)c(C=NC3CCCC3)c(=O)[nH]c2=O)c(C)c1 | inactive: 38.7%

Reprinted at random: two entries already listed, in no set order.
Row | Structure (SMILES) | activity change (PNC), negative = inhibition
8 | O=C1/C(=C/c2ccc([N+](=O)[O-])cc2)N2CCC1CC2 | inconclusive: -34.2%
4 | Cc1nn(Cc2ccc(Cl)cc2Cl)c(Cl)c1C(=O)Nc1ccc(OC(F)F)cc1 | inconclusive: -52.3%

(listing goes on)

Row | Structure (SMILES) | activity change (PNC), negative = inhibition
23 | C=CCC1(CN2CCCC2=O)C(=O)NC(=O)NC1=O | inconclusive: -46.3%
24 | O=P(Nc1cccnc1)(Oc1ccccc1Cl)Oc1ccccc1Cl | inconclusive: -31.3%
25 | CN(C(=O)Oc1ccc([N+](=O)[O-])cc1)c1ccccc1 | inconclusive: -30.5%
26 | Cc1cc(C)c(C(=O)CN2CCOCC2)c(C)c1 | inactive: -10.7%
27 | Cc1nc2ccccn2c1P(=S)(N1CCCCC1)N1CCCCC1 | inconclusive: -30.1%
28 | Cc1ccc(CS(=O)(=O)CCC(=O)N2CCC3(CC2)OCCO3)cc1 | inconclusive: -59.8%
29 | COc1ccc(C(C)=O)cc1CC(C(=O)c1ccc(F)cc1)N(C)C (configuration not stated) | active: -93.2%
30 | COC(=O)C(C)Oc1cc(C)cc2oc(=O)c3c(c12)CCC3 (configuration not stated) | inconclusive: -32.7%
31 | Cc1ccccc1-n1c(O)c(C=Nc2ccc(N(C)C)cc2)c(=O)[nH]c1=O | inactive: -28.6%
32 | Cc1ccc(/C=C2/C(=O)NC(=O)N(CCc3ccc(F)cc3)C2=O)s1 | inconclusive: -50.4%
33 | O=P(NS(=O)(=O)c1ccc(Cl)cc1)(Oc1ccccc1)Oc1ccccc1 | active: -100%
34 | C=CC1CN2CCC1CC2[C@@H](OC(=O)c1ccc(OC)cc1)c1ccnc2ccccc12 (some centres not stated) | inconclusive: -67.1%
35 | COCCOC(=O)C1=C(N)Oc2c(c(=O)oc3ccccc23)C1c1ccncc1 (configuration not stated) | inconclusive: -51.2%
36 | O=C(C(Cc1ccccc1)NS(=O)(=O)c1cccc2nsnc12)N1CCC2(CC1)OCCO2 (configuration not stated) | inconclusive: -32%
37 | O=c1c(C=NCc2cccs2)c(O)n(C2CCCCC2)c(=O)n1C1CCCCC1 | inactive: -16%
38 | CC1CN(C)C(C)(C)CC1(O)c1ccccc1 (configuration not stated) | inconclusive: -55.1%
39 | NC(=O)c1c(NC(=O)c2ccc(S(=O)(=O)N(CCCl)CCCl)cc2)sc2c1CCCCC2 | inconclusive: -42.2%
40 | CN1c2ccc([N+](=O)[O-])cc2CC2(C(=O)NC(=O)N(c3ccccc3)C2=O)C1c1ccccc1 (configuration not stated) | inconclusive: -57.7%
41 | CC(c1ccc(F)cc1)n1cc(C(=O)NCc2ccc3c(c2)OCO3)nn1 (configuration not stated) | active: -89.7%
42 | Cc1nc2cc(C(F)(F)F)ccc2n1C1CCN(Cc2nnnn2Cc2ccc3c(c2)OCO3)CC1 | inconclusive: -66.9%
43 | Cc1cccc(-n2c(-c3ccc([N+](=O)[O-])cc3)nc3ccccc3c2=O)c1 | inactive: 13.4%
44 | CN1CC=C2C(C#N)=C(N)C(C#N)(C#N)C(c3ccncc3)C2C1 (configuration not stated) | inconclusive: -38.8%

Row | Structure (SMILES) | activity change (PNC), negative = inhibition
45 | O=c1[nH]c(=O)n(CC2CCCO2)c(O)c1/C=C1\C=Nc2ccccc21 (configuration not stated) | inconclusive: -75.9%
46 | Clc1ccc(COC(Cn2ccnc2)c2ccc(Cl)cc2Cl)cc1 (configuration not stated) | inconclusive: -56.3%
47 | Cc1ccccc1Cc1c(C)nc2nc(SCC(=O)N3CCC4(CC3)OCCO4)nn2c1C | inactive: -1.5%
48 | Cc1cc(OC(=O)CCCNC(=O)OC(C)(C)C)c2c3c(c(=O)oc2c1)CCC3 | inactive: -10.3%
49 | CN1C(=O)NC(=O)[C@]2(Cc3ccccc3N3CCN(c4ccccc4)CC32)C1=O (some centres not stated) | inactive: 9.01%
50 | CN1CCN(C(=O)COc2ccc3ccccc3c2Br)CC1 | inconclusive: -70.5%
51 | CC(C)OP(=O)(OC(C)C)C(O)c1ccccc1F (configuration not stated) | inconclusive: -49.7%
52 | Cc1cccc(CNCCc2ccccc2)n1 | inconclusive: -66.2%
53 | COC(=O)c1ccc(NC(=O)CSc2nc3ccc(N4C(=O)C5C6C=CC(C6)C5C4=O)cc3s2)cc1 (configuration not stated) | inconclusive: -42.9%
54 | CCCCOC(=O)C1=C(N)OC2=C(C(=O)CCC2)[C@]12C(=O)Nc1ccccc12 | inconclusive: -39.4%
55 | CCOC(=O)c1c(C)n(CCN2CCN(C)CC2)c2ccc(OC)cc12 | inactive: 52.1%
56 | CCOC(=O)C1CCCCC12C(C#N)=C(N)Oc1n[nH]c(C)c12 (configuration not stated) | inactive: -1.35%
57 | COc1cccc(-n2c(O)c(C=NCc3ccc4c(c3)OCO4)c(=O)[nH]c2=O)c1 | inactive: -5.5%
58 | Cc1nn(Cc2ccccc2)c(C)c1C(=O)OCC(=O)Nc1ccccc1SCC#N | inactive: 18.7%
59 | O=C(CN1CCOCC1)NCC(=O)Nc1ccc(Br)cc1C(=O)c1ccccc1 | inconclusive: -50.9%
60 | CCOC(=O)C1CCN(/C=C2/C(=O)NC(=O)N(c3ccc(OCC)cc3)C2=O)CC1 | inconclusive: -59.3%
61 | CCC(C)N1CCN(C(=O)Cc2ccccc2)CC1 (configuration not stated) | inactive: 15%
62 | CN(C)CC1CCCCC1OC(=O)c1ccc(Cl)c(Cl)c1 (configuration not stated) | inactive: -10.5%
63 | CC1CN=C(NCc2ccccc2)S1 (configuration not stated) | inconclusive: -74.3%
64 | C=COCCn1c(C)c(C(=O)OCC)c2cc(O)ccc21 | inconclusive: -60.8%
65 | Cc1ccnc(-n2c(C)cc(/C=C3\C(=O)NC(=S)N(C)C3=O)c2C)c1 | inactive: -11.7%
66 | O=C(C1CCCN(S(=O)(=O)c2cccc3nsnc23)C1)N1CCC2(CC1)OCCO2 (configuration not stated) | inconclusive: -47.8%

Row | Structure (SMILES) | activity change (PNC), negative = inhibition
67 | CN1CC=C(c2c[nH]c3ccccc23)CC1 | inconclusive: -55.8%
68 | CN(C)c1ccc2c(c1)N=C(c1ccco1)OP2(=S)N1CCOCC1 (configuration not stated) | inactive: 22.7%
69 | Cc1ccc(N2C(=O)NC(=O)/C(=C\c3cc(C)n(-c4sc5c(c4C#N)CCCC5)c3C)C2=O)cc1 | inconclusive: -31.8%
70 | Cc1ccc2c(c1)CNc1ccccc1O2 | inactive: -11.4%
71 | CN(C)C(=O)Oc1cccc(-c2cn3cc(Cl)ccc3n2)c1 | inconclusive: -42.5%
72 | COc1ccccc1CCNC1CCC(C)CC1 (configuration not stated) | inconclusive: -54.1%
73 | O=C(c1ccc(CNS(=O)(=O)c2ccc(Br)cc2)cc1)N1CCC2(CC1)OCCO2 | inactive: 22.3%
74 | Cc1ccc(/C=C2/C(=O)NC(=O)N(CCc3ccc(F)cc3)C2=O)o1 | inconclusive: -31.9%
75 | CC1=CC(=O)NP(=O)(Oc2ccc3ccccc3c2)N1 (configuration not stated) | inactive: 51.5%
76 | CN1CCC2(CC1)NC(=O)C1=C(CN(C)CC1)N2 | inactive: 41.7%
77 | O=c1[nH]c(=O)n(Cc2ccccc2)c(O)c1C=NCCN1CCOCC1 | inconclusive: -31.2%
78 | CN1C(=O)C(Cc2ccc3c(c2)OCO3)C(=O)N(C)C1=O | inactive: -12.2%
79 | CCOC(=O)CC1=C(C(=O)OCC)C2(C(=O)N1CC(=O)OC)C(C#N)=C(N)Oc1ccccc12 (configuration not stated) | inconclusive: -34.1%
80 | O=C1C2CCCN2C(c2ccncc2)N1c1ccc(Cl)c(Cl)c1 (configuration not stated) | inconclusive: -41.9%
81 | CCOc1ccccc1-n1c(O)c(C=Nc2c(C)n(C)n(-c3ccccc3)c2=O)c(=O)[nH]c1=O | inconclusive: -77.6%
82 | CC[C@@H](CO)NC(=O)[C@@H]1C=C2c3cccc4c3c(cn4C)C[C@H]2N(C)C1 | inconclusive: -35.9%
83 | CC/C(=N\N1CCN(C)CC1)c1c(O)[nH]c(=O)[nH]c1=O | inactive: -10.6%
84 | Brc1ccc(C2N3CCCN23)cc1 (configuration not stated) | inconclusive: -33.4%
85 | CN1CCN(c2ccc(NC(=O)Oc3ccccc3)cc2)CC1 | inactive: 34.8%
86 | Cc1ccc(S(=O)(=O)Nc2cc(C(=O)N3CCC4(CC3)OCCO4)ccc2N2CCCCC2)cc1 | inactive: 81.2%
87 | COC(=O)[C@@H]1C[C@@]1(C)[C@@H](NP(=O)(c1ccccc1)c1ccccc1)c1ccccc1 | inactive: 37.5%

Of the compounds above, 4 have an aryl thioether with sulfur outside any ring.
Row | Structure (SMILES) | activity change (PNC), negative = inhibition
20 | CC(=O)c1ccc2c(c1)C1C(Cl)C(Sc3ccccc3[N+](=O)[O-])CC1C(c1ccccc1)N2 (configuration not stated) | active: -96.5%
47 | Cc1ccccc1Cc1c(C)nc2nc(SCC(=O)N3CCC4(CC3)OCCO4)nn2c1C | inactive: -1.5%
53 | COC(=O)c1ccc(NC(=O)CSc2nc3ccc(N4C(=O)C5C6C=CC(C6)C5C4=O)cc3s2)cc1 (configuration not stated) | inconclusive: -42.9%
58 | Cc1nn(Cc2ccccc2)c(C)c1C(=O)OCC(=O)Nc1ccccc1SCC#N | inactive: 18.7%

From PubChem BioAssay AID2417 (National Center for Advancing Translational Sciences (NCATS), 2010)
